The record followed here is PubChem BioAssay AID248 (DTP/NCI, 2004).

For the assay, the system named is L1210 leukemia ip in BDF1 mice, survival T/C. As to the kind of experiment: NCI In Vivo Anticancer Drug Screen. Data for tumor model L1210 Leukemia (intraperitoneal) in B6D2F1 (BDF1) mice. Particulars: T/C endpoint: mean survival time, schedule: Q01DX Z (ip), vehicle: methylcellulose (MC), higher T/C = longer survival.

The list does not hold the whole screen: it gathers some chemical classes. Not every dose and run of a compound is shown. T/C: endpoint of the treated group in % of that of the vehicle group. Where survival is the endpoint, this PubChem deposit counts one and a half times the control or more as active, and values a quarter to a half above the control carry no call in these data; other NCI protocols may use other cut-offs. Some entries show no survivor count and are marked so; the dose need not have been tolerated. Schedule codes are those of the source, read here as Q, the interval in days (D) or hours (H), X, the number of doses. Some schedule codes hold Z or #, which are not explained here. Some entries hold several experiments; the results are listed from low to high.

Regarding `O=C(O)C(=O)Cc1ccc(N(CCCl)CCCl)cc1`, the T/C by setting is: (dose: 2.0 mg/kg/injection) 125 % of control [survivor count not shown]; (dose: 3.0 mg/kg/injection) 137 % of control [survivor count not shown]; (dose: 4.4 mg/kg/injection) 145 [survivor count not shown] and 154 % of control [survivor count not shown]; (dose: 6.0 mg/kg/injection) 101 [survivor count not shown] and 134 % of control [survivor count not shown]; (dose: 6.6 mg/kg/injection) 122 [survivor count not shown] and 129 % of control [survivor count not shown]; (dose: 10.0 mg/kg/injection) 108 [survivor count not shown], 156 [survivor count not shown], 162 % of control [survivor count not shown]. The T/C was 129 [survivor count not shown] and 175 % of control [survivor count not shown] (dose: 11.0 mg/kg/injection); 98 [survivor count not shown], 141 [survivor count not shown], 190 % of control [survivor count not shown] (dose: 15.0 mg/kg/injection); 111 [survivor count not shown] and 137 % of control [survivor count not shown] (dose: 16.0 mg/kg/injection); 96 [survivor count not shown] and 102 % of control [survivor count not shown] (dose: 22.0 mg/kg/injection); 112 % of control [survivor count not shown] (dose: 24.0 mg/kg/injection).
